At least one compound was matched to its structure with a doubt left.
Test system: Aspergillus ochraceus 11 alpha hydroxylase
Experiment: HPLC assay of conversion of androstenedione to 11α-hydroxyandrostenedione by subcellular fractions of baculovirus-infected Sf9 cells co-expressing 11 alpha hydroxylase and human oxidoreductase
Format: biochemical
Conditions: for peak matching 11α-hydroxyandrostenedione standard, % of the total peak area quantitated at 247 nm: 250 μM AD, 120 minutes, 37° C.; for concentration of the 11α-hydroxyandrostenedione peak: after correcting for the purity of the standard (89.5%); for % of substrate converted to 11α-hydroxyandrostenedione: substrate concentration of 250 μM
Description: Microsomal and mitochondrial subcellular fractions were prepared from insect cells co-infected with recombinant baculoviruses expressing recombinant Aspergillus ochraceus 11 alpha hydroxylase and human oxidoreductase cloned from HepG2 cell RNA. The subcellular fractions were incubated with 250 μM androstenedione (AD) in the presence of an NADPH-generating system for 120 minutes, and the resulting products were separated by HPLC and monitored by ultraviolet detection at 247 nm. Hydroxlase activity was found in the microsomal fraction, as expected, but also appeared in the mitochondrial fraction. […] Panel A illustrates a reaction carried out using enzyme prepared from a mitochondrial fraction. The peak in panel A that elutes after AD appears to be testosterone. When a microsomal fraction was used, almost as much AD was converted to 11 alpha hydroxy AD, but relatively more testosterone was also produced. Panel B illustrates the same reaction carried out for 120 minutes without a source of enzyme. Panel C illustrates an HPLC tracing with 11α-hydroxyandrostenedione standard added to incubation buffer.
Sf9 cells were co-infected with virus particles that contained the steroid 11 alpha hydroxylase cDNA and a separate virus containing a human NADPH P450-oxidoreductase. Both viruses were added at a multiplicity of infection (MOI) ratio of 0.1:0.01 (11 aOH to oxr). One day after infection, 0.9 μg/ml hemin chloride was added to the culture. The cells were harvested by centrifugation three days after infection (unless specified differently), and the washed cell pellets were frozen until processed for sub-cellular fractions.
One half gram of the cell pastes from infected sf9 cells and uninfected control cells were thawed and suspended in 40 ml of 0.25 M sucrose with 10 mM KHPO4, adjusted to pH 7.4. The suspensions were homogenized using a Fisher Sonic Dismembrator, model 300 probe sonicator (Fisher Scientific, St. Louis, Mo.). The samples were transferred to a conical centrifuge tube (Corning Costar Corporation, Cambridge, Mass.) and subjected to centrifugation at 500×g at 5° C. for 15 minutes. The pellets were resuspended in the same volume of fresh buffer and viewed under a microscope to confirm complete lysis. Few or no whole cells were observed. The supernatants were then subjected to centrifugation at 10,000×g for 30 minutes at 5° C. to collect mitochondria, Golgi and other subcellular organelles. The pellets were resuspended in fresh buffer and subjected to centrifugation at 7,800×g for 30 minutes at 5° C. to collect mitochondria.
Incubation mixtures consisted of Sf9 microsomes (1.0 mg of protein/mL final concentration), an NADPH-generating system and 250 uM substrate (AD) in 100 mM potassium phosphate buffer, pH 7.4 or 150 mM HEPES buffer, pH 7.4. The NADPH-generating system was composed of the following at the indicated final concentrations: MgCl2 (7.5 mM), D-glucose-6-phosphate (7.5 mM), NADP (0.80 mM), and glucose-6-phosphate dehydrogenase (1.0 units/mL). Incubations were carried out for the indicated times at 37° C. in a water bath. Following incubation, reactions were terminated by the addition of 0.3 ml methanol. The samples were vortexed three times for two seconds and placed on ice, or stored at −70° C. for later analysis.
On one occasion, the incubation was carried out in a volume of 0.5 ml in siliconized polypropylene 1.5 ml microcentrifuge tubes at 37° C. for 120 minutes. The enzyme, prepared from microsomal or mitochondrial fractions, was added and the substrate added at a concentration of 250 μM (e.g., 25 mM methanol stock solution of AD). The cofactor buffer was 100 mM potassium phosphate, pH 7.4, 7.5 mM MgCl2, 7.5 mM glucose-6-phosphate, 0.80 mM NADP, and 1.0 units/mL glucose-6-phosphate dehydrogenase. HPLC samples were prepared by terminating the 0.5 ml reaction mixture by addition of 0.3 ml methanol, vortexing three times for 2 seconds and storing on ice. […]

## C[C@]12CCC(=O)C=C1CC[C@@H]1[C@@H]2[C@H](O)C[C@]2(C)C(=O)CC[C@@H]12 [11α-hydroxyandrostenedione, Androst-4-ene-3,17-dione,11-hydroxy-,(11α)-(9CI)]
"microsomal" sample
  peak matching 11α-hydroxyandrostenedione standard, % of the total peak area quantitated at 247 nm: 2.3%
  concentration of the 11α-hydroxyandrostenedione peak: 1.31 µg/mL
  % of substrate converted to 11α-hydroxyandrostenedione: 1.7%
"mitochondria" sample
  peak matching 11α-hydroxyandrostenedione standard, % of the total peak area quantitated at 247 nm: 3.2%
  concentration of the 11α-hydroxyandrostenedione peak: 1.75 µg/mL
  % of substrate converted to 11α-hydroxyandrostenedione: 2.3%
